Here are results for one substance from publication PMC6529429.

Sequences of proteins named here, by UniProt entry; tags and fusion partners are left off.
UniProt Q9BQ24: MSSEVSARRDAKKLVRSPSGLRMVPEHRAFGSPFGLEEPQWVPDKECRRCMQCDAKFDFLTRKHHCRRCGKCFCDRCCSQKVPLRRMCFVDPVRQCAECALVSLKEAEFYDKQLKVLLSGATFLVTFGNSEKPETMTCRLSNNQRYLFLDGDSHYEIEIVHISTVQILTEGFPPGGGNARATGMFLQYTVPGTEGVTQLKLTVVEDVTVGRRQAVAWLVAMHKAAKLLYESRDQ
UniProt Q9HAU4: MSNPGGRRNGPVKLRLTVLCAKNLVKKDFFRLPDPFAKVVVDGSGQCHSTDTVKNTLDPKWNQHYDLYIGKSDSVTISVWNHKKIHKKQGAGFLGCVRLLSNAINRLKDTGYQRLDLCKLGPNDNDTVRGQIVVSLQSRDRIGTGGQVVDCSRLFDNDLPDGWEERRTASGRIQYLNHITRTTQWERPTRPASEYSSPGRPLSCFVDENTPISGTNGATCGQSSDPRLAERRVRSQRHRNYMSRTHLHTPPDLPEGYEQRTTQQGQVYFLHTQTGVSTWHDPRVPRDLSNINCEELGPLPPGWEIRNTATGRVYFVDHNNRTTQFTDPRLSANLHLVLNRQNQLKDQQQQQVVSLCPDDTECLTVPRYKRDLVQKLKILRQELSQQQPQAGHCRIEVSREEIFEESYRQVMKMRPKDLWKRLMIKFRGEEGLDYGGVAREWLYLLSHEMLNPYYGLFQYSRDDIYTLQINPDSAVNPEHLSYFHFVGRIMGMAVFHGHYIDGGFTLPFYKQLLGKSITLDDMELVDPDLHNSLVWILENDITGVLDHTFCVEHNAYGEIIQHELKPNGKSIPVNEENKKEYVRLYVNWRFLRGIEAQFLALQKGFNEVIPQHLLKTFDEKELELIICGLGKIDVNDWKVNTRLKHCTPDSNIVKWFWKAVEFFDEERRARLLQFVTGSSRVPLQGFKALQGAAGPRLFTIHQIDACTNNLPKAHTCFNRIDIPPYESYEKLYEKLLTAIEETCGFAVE

For this assay, the target named is recombinant FLAG-tagged ZFYVE21 (UniProt Q9BQ24). The experiment in a line: pull-down; ZFYVE21 (1 μg) held on anti-ZFYVE21 protein A/G beads, washed, incubated with SMURF2 (1 μg) 30 min at room temperature; 32 μL RIPA buffer; western blot; both purified. Background: A western blot detects proteins with antibodies after separation by electrophoresis.

No constants are given. Whether binding was seen depends on the method and setting.

Regarding “recombinant SMURF2 (from UniProt Q9HAU4 1-748)”, the binding result is “no binding (tested: 1 μg of each protein)”.
